These are yes or no findings as the source states them, for the method shown. Binding seen in cells or lysates may run through a third protein. Some entries that bind do so weakly or less than the wild type.
Tests used:
[1] = target: MCM2 (human (endogenous in M059J and M059K)) (UniProt P49736); assay: proximity ligation; in situ PLA (Duolink) on pre-extracted (CSK-R buffer), fixed cells with antibodies against the two endogenous proteins; M059K with or without 2 mM HU for 4 h, siNC; M059J or M059K transfected with siDNA-PKcs
[2] = target: T1, MCM5 (human (endogenous in M059J and M059K)) (UniProt P33992); assay: as above
T1 sequence: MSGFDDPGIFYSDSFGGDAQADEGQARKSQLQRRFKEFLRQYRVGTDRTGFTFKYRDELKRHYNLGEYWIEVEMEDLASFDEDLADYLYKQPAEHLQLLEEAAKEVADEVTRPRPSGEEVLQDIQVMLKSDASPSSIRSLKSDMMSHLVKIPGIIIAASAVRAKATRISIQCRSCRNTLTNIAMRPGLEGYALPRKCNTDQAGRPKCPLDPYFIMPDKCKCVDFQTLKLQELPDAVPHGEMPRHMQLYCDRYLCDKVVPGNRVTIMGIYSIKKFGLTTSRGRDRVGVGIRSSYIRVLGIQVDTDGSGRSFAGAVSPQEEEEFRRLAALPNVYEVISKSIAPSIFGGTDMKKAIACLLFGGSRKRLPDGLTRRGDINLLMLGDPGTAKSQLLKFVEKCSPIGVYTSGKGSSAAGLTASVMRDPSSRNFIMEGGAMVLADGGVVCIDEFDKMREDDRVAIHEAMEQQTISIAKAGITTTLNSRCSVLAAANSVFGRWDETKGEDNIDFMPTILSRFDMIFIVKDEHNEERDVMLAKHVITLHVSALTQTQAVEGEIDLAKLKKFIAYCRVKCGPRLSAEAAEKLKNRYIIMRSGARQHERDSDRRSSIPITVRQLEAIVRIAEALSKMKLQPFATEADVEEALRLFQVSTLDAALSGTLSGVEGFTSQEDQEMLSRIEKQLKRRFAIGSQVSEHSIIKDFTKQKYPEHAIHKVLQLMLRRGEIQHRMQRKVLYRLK

Chains of the proteins cited; added tags and fusions are not shown. Lines headed by an entry give the natural chain unless they say otherwise; changes in a name come on top.
UniProt P49736: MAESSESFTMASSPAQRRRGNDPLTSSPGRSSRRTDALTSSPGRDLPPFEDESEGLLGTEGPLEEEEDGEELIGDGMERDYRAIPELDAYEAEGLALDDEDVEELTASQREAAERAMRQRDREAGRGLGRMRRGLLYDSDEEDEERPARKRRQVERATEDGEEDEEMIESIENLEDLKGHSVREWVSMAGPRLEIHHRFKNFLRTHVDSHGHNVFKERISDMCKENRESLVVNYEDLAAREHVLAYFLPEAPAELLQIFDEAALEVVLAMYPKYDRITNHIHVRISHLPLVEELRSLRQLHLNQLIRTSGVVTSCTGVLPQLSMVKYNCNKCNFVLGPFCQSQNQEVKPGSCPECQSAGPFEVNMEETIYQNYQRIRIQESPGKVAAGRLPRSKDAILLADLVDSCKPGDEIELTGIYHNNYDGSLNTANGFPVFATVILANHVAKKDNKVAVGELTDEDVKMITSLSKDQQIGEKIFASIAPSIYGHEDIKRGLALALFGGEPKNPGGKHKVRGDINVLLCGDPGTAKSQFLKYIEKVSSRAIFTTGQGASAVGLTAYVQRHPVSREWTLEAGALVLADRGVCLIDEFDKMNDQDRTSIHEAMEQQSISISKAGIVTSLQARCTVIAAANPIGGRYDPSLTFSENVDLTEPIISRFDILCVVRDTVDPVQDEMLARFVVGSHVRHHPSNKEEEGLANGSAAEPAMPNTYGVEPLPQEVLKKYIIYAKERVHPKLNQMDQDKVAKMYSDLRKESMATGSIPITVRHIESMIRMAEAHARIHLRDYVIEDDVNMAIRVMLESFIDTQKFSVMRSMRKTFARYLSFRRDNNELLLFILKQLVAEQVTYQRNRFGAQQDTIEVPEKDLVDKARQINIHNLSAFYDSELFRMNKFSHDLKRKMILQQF
UniProt P39748: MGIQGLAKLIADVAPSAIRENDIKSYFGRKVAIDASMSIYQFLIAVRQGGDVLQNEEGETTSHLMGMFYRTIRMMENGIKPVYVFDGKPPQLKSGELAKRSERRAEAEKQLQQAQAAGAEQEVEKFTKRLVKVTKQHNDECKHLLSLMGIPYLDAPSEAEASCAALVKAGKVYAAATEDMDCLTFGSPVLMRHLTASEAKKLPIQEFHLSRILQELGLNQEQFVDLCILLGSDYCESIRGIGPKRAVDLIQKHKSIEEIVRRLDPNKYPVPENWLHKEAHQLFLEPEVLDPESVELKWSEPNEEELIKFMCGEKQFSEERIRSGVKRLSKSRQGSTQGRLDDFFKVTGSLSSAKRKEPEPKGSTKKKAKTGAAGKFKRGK

For “Flap endonuclease 1 (FEN1) (from UniProt P39748 1-380)”, the binding [1] was “binds” and the binding [2] was “binds”.

— article PMC9006432
